These are yes or no findings as the source states them, for the method shown. Binding seen in cells or lysates may run through a third protein. Some results given as binding are weak or reduced against the parent protein; the word gives no strength.
Target: c-Myc (myelocytomatosis virus oncogene cellular homolog) (human (endogenous in human cell lines; line not stated)) (UniProt P01106)
Experiment: co-IP; cells lysed in RIPA buffer with 1% PMSF and 1% protease inhibitor; 5 ug primary antibody (METTL13, abcam ab186002; c-Myc, Santa Cruz sc-40) or homologous IgG with lysate at 4 °C overnight; protein A/G beads 1 h at 4 °C, washed three times; western blot; cell line not stated

Sequences of proteins named here, by UniProt entry; tags and fusion partners are left off.
UniProt P01106: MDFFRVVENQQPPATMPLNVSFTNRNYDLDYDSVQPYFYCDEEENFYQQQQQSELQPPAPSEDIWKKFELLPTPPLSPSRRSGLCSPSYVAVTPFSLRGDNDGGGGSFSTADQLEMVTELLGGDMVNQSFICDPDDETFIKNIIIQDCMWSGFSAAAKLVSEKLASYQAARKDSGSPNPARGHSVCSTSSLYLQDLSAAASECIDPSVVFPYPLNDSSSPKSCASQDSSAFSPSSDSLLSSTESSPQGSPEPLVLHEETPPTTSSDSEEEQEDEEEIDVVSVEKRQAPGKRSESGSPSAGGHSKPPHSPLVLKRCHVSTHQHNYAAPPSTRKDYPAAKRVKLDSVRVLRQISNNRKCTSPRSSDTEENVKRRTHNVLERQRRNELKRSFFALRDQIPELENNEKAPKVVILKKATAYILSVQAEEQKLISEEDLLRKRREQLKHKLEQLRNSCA

binding: binds
B1: Methyltransferase like 13 (METTL13) (protein, UniProt Q8N6R0 1-699)
chain: MNLLPKSSREFGSVDYWEKFFQQRGKKAFEWYGTYLELCGVLHKYIKPREKVLVIGCGNSELSEQLYDVGYRDIVNIDISEVVIKQMKECNATRRPQMSFLKMDMTQMEFPDASFQVVLDKGTLDAVLTDEEEKTLQQVDRMLAEVGRVLQVGGRYLCISLAQAHILKKAVGHFSREGWMVRVHQVANSQDQVLEAEPQFSLPVFAFIMTKFRPVPGSALQIFELCAQEQRKPVRLESAERLAEAVQERQQYAWLCSQLRRKARLGSVSLDLCDGDTGEPRYTLHVVDSPTVKPSRDNHFAIFIIPQGRETEWLFGMDEGRKQLAASAGFRRLITVALHRGQQYESMDHIQAELSARVMELAPAGMPTQQQVPFLSVGGDIGVRTVQHQDCSPLSGDYVIEDVQGDDKRYFRRLIFLSNRNVVQSEARLLKDVSHKAQKKRKKDRKKQRPADAEDLPAAPGQSIDKSYLCCEHHKAMIAGLALLRNPELLLEIPLALLVVGLGGGSLPLFVHDHFPKSCIDAVEIDPSMLEVATQWFGFSQSDRMKVHIADGLDYIASLAGGGEARPCYDVIMFDVDSKDPTLGMSCPPPAFVEQSFLQKVKSILTPEGVFILNLVCRDLGLKDSVLAGLKAVFPLLYVRRIEGEVNEILFCQLHPEQKLATPELLETAQALERTLRKPGRGWDDTYVLSDMLKTVKIV

— publication PMC8120818
